Source: PMC4538837, “Structural basis for substrate recognition and processive cleavage mechanisms of the trimeric exonuclease PhoExo I”

Target: T1, PhoExo I-CHis N214L (Pyrococcus horikoshii OT3) (UniProt A0A060P168)
T1 sequence (looked up, limits assumed): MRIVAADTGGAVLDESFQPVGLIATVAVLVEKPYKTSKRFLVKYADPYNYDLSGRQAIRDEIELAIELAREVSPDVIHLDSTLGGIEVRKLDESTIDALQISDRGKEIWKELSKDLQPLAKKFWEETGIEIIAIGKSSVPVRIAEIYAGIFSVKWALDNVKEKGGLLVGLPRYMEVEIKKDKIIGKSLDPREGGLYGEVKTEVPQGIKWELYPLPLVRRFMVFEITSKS
Experiment: EMSA
Conditions: 0.1 mM EDTA, no Mg2+, clearly reduced vs wild type, EMSA: 25 mM Hepes-NaOH pH 7.5, 50 mM NaCl, 0.1 mg/ml BSA, 5 nM probe, 0-1600 nM trimer, 5 min 55 C, then 0.05% glutaraldehyde 10 min at room temperature, recombinant protein, protein details: C-terminal 4xHis, label: 5'-32P

AGCTATGACCATGATTACGAATTGCTT [27-nt DNA]
binding result (single-stranded DNA): binds more weakly

AGCUAUGACCAUGAUUACGAAUUGCUU [27-nt RNA]
binding result: binds more weakly

Construct, isoform or probe ends are uncertain for at least one entry. Weaker means in comparison with the reference protein, sequence or condition of that experiment. Protein sequences can lack the tags named with them.
